Results are given in words; binding and its absence hold for the method and conditions named. Binding seen in cells or lysates may run through a third protein. Some binding calls cover weakened binding; strength is not graded here. Tags and fused reporters may be left off the sequences shown.

The target of this assay is T1, GST-tagged full-length Scyl1 (Scy1-like 1) (UniProt Q9EQC5).
T1 sequence: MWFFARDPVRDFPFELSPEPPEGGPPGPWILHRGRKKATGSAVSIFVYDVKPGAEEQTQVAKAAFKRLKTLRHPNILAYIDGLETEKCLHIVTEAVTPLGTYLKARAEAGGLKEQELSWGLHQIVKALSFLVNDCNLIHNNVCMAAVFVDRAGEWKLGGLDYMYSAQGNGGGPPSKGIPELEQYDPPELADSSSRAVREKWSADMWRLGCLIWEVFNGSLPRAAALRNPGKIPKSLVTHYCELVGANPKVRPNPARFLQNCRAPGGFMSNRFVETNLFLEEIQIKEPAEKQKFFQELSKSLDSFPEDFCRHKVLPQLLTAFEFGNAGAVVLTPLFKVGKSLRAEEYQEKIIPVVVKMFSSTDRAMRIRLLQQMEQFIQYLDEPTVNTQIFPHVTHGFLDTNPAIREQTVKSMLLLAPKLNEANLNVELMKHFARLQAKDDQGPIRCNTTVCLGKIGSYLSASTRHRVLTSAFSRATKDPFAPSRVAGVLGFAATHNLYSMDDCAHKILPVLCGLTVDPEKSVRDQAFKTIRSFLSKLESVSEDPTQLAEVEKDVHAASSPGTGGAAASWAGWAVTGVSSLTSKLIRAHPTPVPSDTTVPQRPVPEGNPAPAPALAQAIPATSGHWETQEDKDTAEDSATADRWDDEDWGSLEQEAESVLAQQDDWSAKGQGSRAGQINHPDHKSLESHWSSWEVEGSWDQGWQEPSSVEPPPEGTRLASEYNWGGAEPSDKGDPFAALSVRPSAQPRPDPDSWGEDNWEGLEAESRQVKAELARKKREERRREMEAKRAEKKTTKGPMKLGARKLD
The experiment in a line: pull-down; GST-Scyl1 fusion proteins pre-coupled to glutathione-Sepharose beads, incubated 3 h at 4°C with 1 ml rat liver extract (1 mg/ml; 10 mM HEPES pH 7.4, 1% Triton X-100, 50 mM NaCl); washed 3 times; Western blot; only the target purified. Background: Immunoblotting shows a protein as a band on a membrane.

B1: βCOP (protein, UniProt P23514 1-953)
chain: MTAAENVCYTLINVPMDSEPPSEISLKNDLEKGDVKSKTEALKKVIIMILNGEKLPGLLMTIIRFVLPLQDHTIKKLLLVFWEIVPKTTPDGRLLHEMILVCDAYRKDLQHPNEFIRGSTLRFLCKLKEAELLEPLMPAIRACLEHRHSYVRRNAVLAIYTIYRNFENLIPDAPELIHDFLVNEKDASCKRNAFMMLIHADQDRALDYLSTCIDQVQTFGDILQLVIVELIYKVCHANPSERARFIRCIYNLLQSSSPAVKYEAAGTLVTLSSAPTAIKAAAQCYIDLIIKESDNNVKLIVLDRLVELKEHPAHERVLQDLVMDILRVLSTPDLEVRKKTLQLALDLVSSRNVEELVIVLKKEVIKTNNVSEHEDTDKYRQLLVRTLHSCSVRFPDMAANVIPVLMEFLSDSNEAAAADVLEFVREAIQRFDNLRMLIVEKMLEVFHAIKSVKIYRGALWILGEYCSTKEDIQSVMTEVRRSLGEIPIVESEIKKEAGELKPEEEITVGPVQKLVTEMGTYATQSALSSSRPTKKEEDRPPLRGFLLDGDFFVAASLATTLTKIALRYVALVQEKKKQNSFVAEAMLLMATILHLGKSSLPKKPITDDDVDRISLCLKVLSECSPLMNDIFNKECRQSLSQMLSAKLEEEKLSQKKESEKRNVTVQPDDPISFMQLTAKNEMNCKEDQFQLSLLAAMGNTQRKEAADPLASKLNKVTQLTGFSDPVYAEAYVHVNQYDIVLDVLVVNQTSDTLQNCTLELATLGDLKLVEKPSPLTLAPHDFANIKANVKVASTENGIIFGNIVYDVSGAASDRNCVVLSDIHIDIMDYIQPATCTDAEFRQMWAEFEWENKVTVNTNVTDLNDYLQHILKSTNMKCLTPEKALSGYCGFMAANLYARSIFGEDALANVSIEKPVHQGPDAAVTGHIRIRAKSQGMALSLGDKINLSQKKTSL
Turning to B1, the binding result was “binds”.

B2: 58K/formiminotransferase cyclodeaminase (FTCD) (protein, UniProt O88618 1-541)
chain: MSQLVECVPNFSEGNNQEVIDAISQAISQTPGCVLLDVDAGPSTNRTVYTFVGQPECVVEGALSAARTASQLIDMRKHKGEHPRMGALDVCPFIPVRGVSMDECVLCAKAFGQRLAEELNVPVYLYGEAAQMPSRQTLPAIRAGEYEALPEKLKQAEWVPDFGPSSFVPSWGATVTGARKFLIAFNINLLSTKEQAHRIALNLREQGRGKDQPGRLKKVQGIGWYLEEKNLAQVSTNLLDFEVTALHTVYEEARREAQELNLPVVGSQLVGLVPLKALLDAAAFYCDKEKLFVLEEEHRIRLVVNRLGLDSLAPFDPKERIIEYLVPDSGPEQSLLDASLRAFVREVGARSAAPGGGSVAAAVAALGAALASMVGQMTYGRRQFDHLDSTMRRLIPPFHAASAQLTSLVDADARAFAACLGAIKLPKNTPEERDRRTCALQEGLRQAVAVPLKLAETVSQLWPALQELAQCGNLSCLSDLQVAAKALETGVFGAYFNVLINLKDMTDDVFKEKTRHRISSLLQEAKTQAALVLGSLEARKE
Consider B2, for which the binding result is “binds”.
